For some assays here: At least one peptide structure holds a part that was inferred or is arguable (an end, a ring closure or a residue). For some assays here: At least one compound was matched to its structure with a doubt left. *1 amine or outer side, *2 acyl side, *3 side chain or, on linkers, in order; H or OH if unused. Where a SMILES comes first, the peptide text is derived from it. Bridges are numbered along the chain shown (N, C = ends). Roman numbers before positions name the chains, in order. [ ]: non-standard residue; d: D form. The star is where a group is joined. X4 = CC(=O)N[C@@H](CSC1CC(=O)N(CCCCCC(=O)[*:2])C1=O)C(=O)NCCOCCOCCOCCOCCOCCOCCC(=O)[*:1]; Exatecan = CC[C@@]1(O)C(=O)OCc2c1cc1n(c2=O)Cc2c-1nc1cc(F)c(C)c3c1c2[C@@H](N*)CC3; X1 = O=C(O)[C@H]1O[C@@H](Oc2ccc(COC(=O)[*:2])cc2N[*:1])[C@H](O)[C@@H](O)[C@@H]1O; Hexanoyl(6-succinimido-3yl) = O=C1CC([*:1])C(=O)N1CCCCCC(=O)[*:2]; Dolaproine = CO[C@@H]([C@@H]1CCCN1)[C@@H](C)C(=O)O; X3 = O=C(CCCCCN1C(=O)CC([*:1])C1=O)NCCC(=O)[*:2]; Dil = CC[C@H](C)[C@H](NC)[C@@H](CC(=O)O)OC; PEG6 = NCCOCCOCCOCCOCCOCCOCCC(=O)O; NHCH2OCH2CO = O=C(COCN[*:1])[*:2]; X2 = C[C@@H](N*)[C@@H](O)c1ccccc1; NMeV = CN[C@H](C(=O)O)C(C)C; AEEA = NCCOCCOCC(=O)O
Assays:
[1] = test system: NCI-H69; assay: Cell killing in NCI-H69 by CGT (CellTiter-Glo); type: cell-based; settings: NCI-H69, 96 h; Inh% relative to DMSO control, 4-parameter fit
Protocol: Approximately 5 µL of the PDC was added to the corresponding wells of the plate, and compared with DMSO (control, without the PDC of the present application), PTX, MMAE, and Dxd wells. The final concentration of DMSO in each well was 0.2%; • (5) The cells were incubated in a 5% CO2 incubator at 37°C for 96 h; • (6) The cell culture plate was equilibrated to room temperature, and 50 µL of CellTiter-Glo® Reagent was added to each well; • (7) The plate was placed on a shaker for 2 min to ensure complete cell lysis; • (8) After mixing, the plate was placed at room temperature to react for 10 min. The fluorescence value (in RLU) was read when the signal became stable. • c) Data analysis • (1) The inhibition (Inh %) relative to the DMSO control was calculated as follows: Inhibition (Inh%)= 100 -(RLU of compound - RLU of DMSO control)/ (RLU of DMSO control - RLU of blank)*100% • (2) The data were analyzed using Graphpad 5.0 software. A 4-parameter equation was fitted to generate a concentration-response curve to obtain the IC50. Table 3: Test Results of Cell Killing in NCI-H69

Protein sequences, listed by entry. Tags and fused reporters are not part of them. Lines headed by an entry give the natural chain unless they say otherwise; changes in a name come on top.
UniProt P30874: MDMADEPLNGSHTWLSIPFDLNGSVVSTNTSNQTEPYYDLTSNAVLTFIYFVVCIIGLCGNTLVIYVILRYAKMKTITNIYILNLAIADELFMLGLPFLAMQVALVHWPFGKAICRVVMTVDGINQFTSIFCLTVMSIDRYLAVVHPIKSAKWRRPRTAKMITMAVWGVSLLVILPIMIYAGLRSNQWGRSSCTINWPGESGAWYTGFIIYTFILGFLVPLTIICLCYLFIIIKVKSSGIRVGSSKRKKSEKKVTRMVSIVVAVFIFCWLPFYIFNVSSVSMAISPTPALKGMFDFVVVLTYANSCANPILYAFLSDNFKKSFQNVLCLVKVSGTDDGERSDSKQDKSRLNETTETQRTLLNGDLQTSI

[2] = target: T1, SSTR2 (Homo sapiens, UniProt P30874); assay: SSTR2 cAMP test; type: cell-based; settings: SSTR2/CHO cells, Forskolin, cAMP activation rate
T1 construct: expressed in transfected cells; host or cells: CHO cells (SSTR2/CHO)
Protocol: • 1) Compound preparation: The test compound was diluted by 4-fold with DMSO to obtain 10 different concentration points. Approximately 100 nL of the diluted compound was then transferred to a cell reaction plate and centrifuged for later use. • 2) Cell preparation:The cultured SSTR2/CHO cells were collected into a sterile centrifuge tube, and the supernatant was discarded by centrifugation. • 3) The cells were resuspended in assay buffer, counted using a Vi-cell counter, and diluted with assay buffer. • 4) Approximately 100 nL of 100 µM Forskolin was transferred into the cell reaction plate using an Echo and centrifuged. Then, 10 µL of assay buffer containing the cells was added and incubated. • 5) Approximately 10 µL of cAMP detection reagent solution was added to the corresponding wells of the cell reaction plate, and incubated at room temperature in the dark. • 6) The plate was read using a microplate reader. The final value was determined as the ratio of OD at 665 nm to that at 615 nm. • 7) The cAMP value was calculated for each well: Activity (%)=(signal value of sample well - mean signal value of low-signal control wells)/ (mean signal value of high-signal control wells - mean signal value of low-signal control wells). […] The EC50 value of the sample was calculated accordingly. […]

| Structure (SMILES) | Bottom (Inhibition at Lowest Point) [1] | Top (Inhibition at Highest Point) [1] | EC50 [2] [nM] |
| --- | --- | --- | --- |
| CC[C@@]1(O)C(=O)OCc2c1cc1n(c2=O)Cc2c-1nc1cc(F)c(C)c3c1c2[C@@H](NC(=O)COCNC(=O)CNC(=O)[C@H](Cc1ccccc1)NC(=O)CNC(=O)CNC(=O)CCCCCN1C(=O)CC(SC[C@H](NC(C)=O)C(=O)NCCOCCOCCOCCOCCOCCOCCC(=O)N[C@@H](CCCNC(=N)N)C(=O)N[C@@H](CCCNC(=N)N)C(=O)N[C@@H](CC(C)C)C(=O)N[C@@H](Cc2ccccc2)C(=O)N[C@H]2CSSC[C@@H](C(=O)N[C@H](C(=O)N[C@@H](Cc4c[nH]c5ccccc45)C(=O)N[C@@H](CCCNC(=N)N)C(=O)N[C@@H](CC(=O)O)C(N)=O)[C@@H](C)O)NC(=O)[C@H]([C@@H](C)O)NC(=O)[C@H](CCCCN)NC(=O)[C@@H](Cc4c[nH]c5ccccc45)NC(=O)[C@H](Cc4ccc(O)cc4)NC2=O)C1=O)CC3 (stereo partly drawn) [Example 6, Ac-Cys(MC-Gly-Gly-Phe-Gly-NH-CH2-Dxd)-PEG6-Arg-Arg-Leu-Phe-[Cys-Tyr-D-Trp-Lys-Thr-Cys]-Thr-Trp-Arg-Asp-NH2] (I: Ac-C[PEG6]RRLFCY[dW]KTCTWRD-NH2 / II: GGFG[NHCH2OCH2CO]-Exatecan; linker I:1-II:N via Hexanoyl(6-succinimido-3yl); disulfide I:7-I:12) | 10.30 | 78.21 | – |
| CC[C@H](C)[C@@H]([C@@H](CC(=O)N1CCC[C@H]1[C@H](OC)[C@@H](C)C(=O)N[C@H](C)[C@@H](O)c1ccccc1)OC)N(C)C(=O)[C@@H](NC(=O)[C@H](C(C)C)N(C)C(=O)OCc1ccc(NC(=O)[C@H](CCCNC(N)=O)NC(=O)[C@@H](NC(=O)CCCCCN2C(=O)CC(SC[C@H](NC(C)=O)C(=O)NCCOCCOCC(=O)N[C@@H](CCCNC(=N)N)C(=O)N[C@@H](CCCNC(=N)N)C(=O)N[C@@H](CC(C)C)C(=O)N[C@@H](Cc3ccccc3)C(=O)N[C@H]3CSSC[C@@H](C(=O)N[C@H](C(=O)N[C@@H](Cc4c[nH]c5ccccc45)C(=O)N[C@@H](CCCNC(=N)N)C(=O)N[C@@H](CC(=O)O)C(N)=O)[C@@H](C)O)NC(=O)[C@H]([C@@H](C)O)NC(=O)[C@H](CCCCN)NC(=O)[C@@H](Cc4c[nH]c5ccccc45)NC(=O)[C@H](Cc4ccc(O)cc4)NC3=O)C2=O)C(C)C)cc1)C(C)C (stereo partly drawn) [Example 1, Cys(MC-Val-Cit-PABC-MMAE)-AEEA-Arg-Arg-Leu-Phe-[Cys-Tyr-D-Trp-Lys-Thr-Cys]-Thr-Trp-Arg-Asp-NH2] | – | – | 663 |
| CC[C@@]1(O)C(=O)OCc2c1cc1n(c2=O)Cc2c-1nc1cc(F)c(C)c3c1c2[C@@H](NC(=O)COCNC(=O)CNC(=O)[C@H](Cc1ccccc1)NC(=O)CNC(=O)CNC(=O)CCCCCN1C(=O)CC(SC[C@H](NC(C)=O)C(=O)NCCOCCOCCOCCOCCOCCOCCC(=O)NCCCC[C@H](NC(=O)CCOCCOCCOCCOCCOCCOCCNC(=O)[C@H](CSC2CC(=O)N(CCCCCC(=O)NCC(=O)NCC(=O)N[C@@H](Cc4ccccc4)C(=O)NCC(=O)NCOCC(=O)N[C@H]4CCc5c(C)c(F)cc6nc7c(c4c56)Cn4c-7cc5c(c4=O)COC(=O)[C@]5(O)CC)C2=O)NC(C)=O)C(=O)N[C@@H](CCCCNC(=O)CCOCCOCCOCCOCCOCCOCCNC(=O)[C@H](CSC2CC(=O)N(CCCCCC(=O)NCC(=O)NCC(=O)N[C@@H](Cc4ccccc4)C(=O)NCC(=O)NCOCC(=O)N[C@H]4CCc5c(C)c(F)cc6nc7c(c4c56)Cn4c-7cc5c(c4=O)COC(=O)[C@]5(O)CC)C2=O)NC(C)=O)C(=O)NCCOCCOCCOCCOCCOCCOCCC(=O)N[C@@H](CCCNC(=N)N)C(=O)N[C@@H](CCCNC(=N)N)C(=O)N[C@@H](CC(C)C)C(=O)N[C@@H](Cc2ccccc2)C(=O)N[C@H]2CSSC[C@@H](C(=O)N[C@H](C(=O)N[C@@H](Cc4c[nH]c5ccccc45)C(=O)N[C@@H](CCCNC(=N)N)C(=O)N[C@@H](CC(=O)O)C(N)=O)[C@@H](C)O)NC(=O)[C@H]([C@@H](C)O)NC(=O)[C@H](CCCCN)NC(=O)[C@@H](Cc4c[nH]c5ccccc45)NC(=O)[C@H](Cc4ccc(O)cc4)NC2=O)C1=O)CC3 (stereo partly drawn) [Example 7, Ac-Cys(MC-Gly-Gly-Phe-Gly-NH-CH2-Dxd)-PEG6-Lys(Ac-Cys(MC-Gly-Gly-Phe-Gly-NH-CH2-Dxd)-PEG6)-Lys(Ac-Cys(MC-Gly-Gly-Phe-Gly-NH-CH2-Dxd)-PEG6)-PEG6-Arg-Arg-Leu-Phe-[Cys-Tyr-D-Trp-Lys-Thr-Cys]-Thr-Trp-Arg-Asp-NH2] (I: Ac-C[PEG6]KK[PEG6]RRLFCY[dW]KTCTWRD-NH2 / II: GGFG[NHCH2OCH2CO]-Exatecan / III: GGFG[NHCH2OCH2CO]-Exatecan / IV: GGFG[NHCH2OCH2CO]-Exatecan; linker I:1-III:N via Hexanoyl(6-succinimido-3yl); linker I:3-II:N, I:4-IV:N via X4; disulfide I:10-I:15) | 0.65 | 68.39 | – |
| CC[C@@]1(O)C(=O)OCc2c1cc1n(c2=O)Cc2c-1nc1cc(F)c(C)c3c1c2[C@@H](NC(=O)COCNC(=O)CNC(=O)[C@H](Cc1ccccc1)NC(=O)CNC(=O)CNC(=O)CCCCCN1C(=O)CC(SC[C@H](NC(=O)CCOCCOCCOCCOCCOCCOCCN)C(=O)NCCOCCOCCOCCOCCOCCOCCC(=O)N[C@@H](CCCNC(=N)N)C(=O)N[C@@H](CCCNC(=N)N)C(=O)N[C@@H](CC(C)C)C(=O)N[C@@H](Cc2ccccc2)C(=O)N[C@H]2CSSC[C@@H](C(=O)N[C@H](C(=O)N[C@@H](Cc4c[nH]c5ccccc45)C(=O)N[C@@H](CCCNC(=N)N)C(=O)N[C@@H](CC(=O)O)C(N)=O)[C@@H](C)O)NC(=O)[C@H]([C@@H](C)O)NC(=O)[C@H](CCCCN)NC(=O)[C@@H](Cc4c[nH]c5ccccc45)NC(=O)[C@H](Cc4ccc(O)cc4)NC2=O)C1=O)CC3 (stereo partly drawn) [Example 5, PEG6-Cys(MC-Gly-Gly-Phe-Gly-NH-CH2-Dxd)-PEG6-Arg-Arg-Leu-Phe-[Cys-Tyr-D-Trp-Lys-Thr-Cys]-Thr-Trp-Arg-Asp-NH2] (I: H-[PEG6]C[PEG6]RRLFCY[dW]KTCTWRD-NH2 / II: GGFG[NHCH2OCH2CO]-Exatecan; linker I:2-II:N via Hexanoyl(6-succinimido-3yl); disulfide I:8-I:13) | 8.37 | 75.87 | – |
| CC[C@H](C)[C@@H]([C@@H](CC(=O)N1CCC[C@H]1[C@H](OC)[C@@H](C)C(=O)N[C@H](C)[C@@H](O)c1ccccc1)OC)N(C)C(=O)[C@@H](NC(=O)[C@H](C(C)C)N(C)C(=O)OCc1ccc(O[C@@H]2O[C@H](C(=O)O)[C@@H](O)[C@H](O)[C@H]2O)c(NC(=O)CCNC(=O)CCCCCN2C(=O)CC(SC[C@H](NC(C)=O)C(=O)NCCOCCOCC(=O)NCCOCCOCC(=O)NCCOCCOCC(=O)N[C@@H](CCCNC(=N)N)C(=O)N[C@@H](CCCNC(=N)N)C(=O)N[C@@H](CC(C)C)C(=O)N[C@@H](Cc3ccccc3)C(=O)N[C@H]3CSSC[C@@H](C(=O)N[C@H](C(=O)N[C@@H](Cc4c[nH]c5ccccc45)C(=O)N[C@@H](CCCNC(=N)N)C(=O)N[C@@H](CC(=O)O)C(N)=O)[C@@H](C)O)NC(=O)[C@H]([C@@H](C)O)NC(=O)[C@H](CCCCN)NC(=O)[C@@H](Cc4c[nH]c5ccccc45)NC(=O)[C@H](Cc4ccc(O)cc4)NC3=O)C2=O)c1)C(C)C (stereo partly drawn) [Example 4, Ac-Cys(MC-betaglucuronide-MMAE)-AEEA-AEEA-AEEA-Arg-Arg-Leu-Phe-[Cys-Tyr-D-Trp-Lys-Thr-Cys]-Thr-Trp-Arg-Asp-NH2] (I: Ac-C[AEEA][AEEA][AEEA]RRLFCY[dW]KTCTWRD-NH2 / II: [X1][NMeV]V[Dil][Dolaproine]-X2; linker I:1-II:N via X3; disulfide I:9-I:14) | – | – | 720 |
